Source: the supplement of paper PMC7024190
Some of the results follow. Single values are uncertain here, since repeats match poorly.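 The cells were human embryonic kidney cells carrying a Renilla luciferase gene, driven by the HSV-TK promoter, on a plasmid put in briefly by transfection. This is the first-round screen of about ten thousand compounds, looking for ones that raise reporter output.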

system: HEK 293FT; assay: log relative Renilla luciferase luminescence (reporter expression vs reference, reference not stated) (log (base not stated)); higher = higher recombinant reporter expression; conditions: 10 µM; time after transfection 48 h

In order of rising log:
1. COc1ccc2c(c1)C(=O)N(CCc1ccc(S(=O)(=O)NC(=O)NC3CCCCC3)cc1)C(=O)C2(C)C [Gliquidone]  -0.801
2. O=c1c(-c2ccc(O)cc2)coc2c([C@@H]3O[C@H](CO)[C@@H](O)[C@H](O)[C@H]3O)c(O)ccc12 [Puerarin]  -0.568
3. CC1=C(O)c2ccccc2C(=O)C1=O [Phthiocol]  -0.395
4. C[C@]12C=CC(=O)C=C1CC[C@@H]1[C@@H]2[C@@H](O)C[C@@]2(C)[C@H]1CC[C@]2(O)C(=O)COC(=O)CCC(=O)O [Prednisolone hemisuccinate]  -0.328
5. Nc1cccc2c(=O)[nH][nH]c(=O)c12 [Luminol]  -0.0538
6. Cn1c(=O)c2c(ncn2CC(=O)O)n(C)c1=O [Acefylline]  0.0234
7. CC(C)c1nc(CN(C)C(=O)N[C@H](C(=O)N[C@@H](Cc2ccccc2)C[C@H](O)[C@H](Cc2ccccc2)NC(=O)OCc2cncs2)C(C)C)cs1 [Ritonavir]  0.0234
8. CCC(=O)OCC(=O)[C@@]1(O)CC[C@H]2[C@@H]3CCC4=CC(=O)CC[C@]4(C)[C@H]3[C@@H](O)C[C@@]21C [Hydrocortisone propionate]  0.107
9. O=C(/C=C/c1ccccc1)c1ccccc1 [Chalcone]  0.152
10. COc1ccc(Cc2cnc(N)nc2N)cc1OC [Diaveridine]  0.162
11. CCN(CC)CCSC(=O)C(c1ccccc1)c1ccccc1 [Tifenamil]  0.193
12. OCc1ccc(O[C@@H]2O[C@H](CO)[C@@H](O)[C@H](O)[C@H]2O)cc1 [Gastrodin]  0.193
